The test concerns antibodies to imatinib. In words: Immunoassay reactivity of the antibodies produced in accordance with the invention (polyclonal and monoclonal). As to conditions: summary of Tables I and II. In kind it is binding, mouse. From the text: The present invention relates to novel antibodies and monoclonal antibodies to imatinib or its pharmacologically active salts. The antisera of the invention can be conveniently produced by immunizing host animals with the immunogens of this invention. Suitable host animals include rodents, such as, for example, mice, rats, rabbits, guinea pigs and the like, or higher mammals such as goats, sheep, horses and the like. […]
The ELISA method for determining IC50 values and cross-reactivity was performed with the microtiter plates that were sensitized with imatinib-BSA described in Examples 9. […] The assays were all performed by diluting the concentration of the antibodies in each of the wells to the titer determined in Example 10a. […] Following the incubation for color development, 50 of stop solution (1.5% sodium fluoride in di H2O) was added to each well to stop the color development and after 20 seconds of shaking the absorbance was determined at 650 nm (Molecular Devices Plate Reader). The amount of antibody in a well was proportional to the absorbance measured and inversely proportional to the amount of imatinib in the sample. The IC50's of imatinib and N-desmethyl imatinib were determined by constructing dose-response curves with the absorbance in the wells plotted versus analyte concentration in the wells. […]

We go through one compound from patent US8263749B2, “Imatinib immunoassay” (Saladax Biomedical Inc., priority 2009, dated 2012).

SMILES strings stand for the structures.

Consider `CS(=O)(=O)O.Cc1ccc(NC(=O)c2ccc(CN3CCN(C)CC3)cc2)cc1Nc1nccc(-c2cccnc2)n1` [imatinib mesylate], for which the “reactivity with the antibodies” value is “substantially reactive”.
